# PubChem BioAssay (Tox21)
# The chains behind the UniProt entries cited, without tags or fusion partners. Where a name states a change or a piece, a line headed by the entry shows the natural chain unless it says otherwise.
# UniProt P14416, whole entry, looked up: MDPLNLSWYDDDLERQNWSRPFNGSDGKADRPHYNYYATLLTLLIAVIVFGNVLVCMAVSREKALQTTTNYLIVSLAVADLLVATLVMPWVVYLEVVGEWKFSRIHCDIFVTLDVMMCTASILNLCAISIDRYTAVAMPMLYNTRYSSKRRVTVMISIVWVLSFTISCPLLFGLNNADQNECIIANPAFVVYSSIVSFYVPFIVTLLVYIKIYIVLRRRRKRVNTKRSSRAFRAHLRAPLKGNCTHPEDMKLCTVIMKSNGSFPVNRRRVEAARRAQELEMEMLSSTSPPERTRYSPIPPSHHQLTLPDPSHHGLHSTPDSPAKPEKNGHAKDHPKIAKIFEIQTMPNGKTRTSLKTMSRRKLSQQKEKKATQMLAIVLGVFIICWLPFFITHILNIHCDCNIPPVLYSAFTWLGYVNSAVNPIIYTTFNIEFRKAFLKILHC
# UniProt P28223, whole entry, looked up: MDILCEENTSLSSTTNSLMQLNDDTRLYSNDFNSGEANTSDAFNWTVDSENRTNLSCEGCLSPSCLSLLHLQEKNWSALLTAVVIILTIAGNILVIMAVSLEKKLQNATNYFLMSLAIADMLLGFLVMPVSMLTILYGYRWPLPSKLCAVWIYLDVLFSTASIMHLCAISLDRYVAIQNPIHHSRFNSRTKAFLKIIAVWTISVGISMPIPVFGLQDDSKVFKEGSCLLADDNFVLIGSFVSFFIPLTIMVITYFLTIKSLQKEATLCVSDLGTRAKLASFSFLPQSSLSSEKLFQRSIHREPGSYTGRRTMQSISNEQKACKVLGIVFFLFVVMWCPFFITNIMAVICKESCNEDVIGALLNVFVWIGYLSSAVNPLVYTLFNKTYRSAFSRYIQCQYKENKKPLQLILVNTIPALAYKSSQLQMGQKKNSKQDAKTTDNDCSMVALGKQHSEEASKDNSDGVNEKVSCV
# UniProt P11229: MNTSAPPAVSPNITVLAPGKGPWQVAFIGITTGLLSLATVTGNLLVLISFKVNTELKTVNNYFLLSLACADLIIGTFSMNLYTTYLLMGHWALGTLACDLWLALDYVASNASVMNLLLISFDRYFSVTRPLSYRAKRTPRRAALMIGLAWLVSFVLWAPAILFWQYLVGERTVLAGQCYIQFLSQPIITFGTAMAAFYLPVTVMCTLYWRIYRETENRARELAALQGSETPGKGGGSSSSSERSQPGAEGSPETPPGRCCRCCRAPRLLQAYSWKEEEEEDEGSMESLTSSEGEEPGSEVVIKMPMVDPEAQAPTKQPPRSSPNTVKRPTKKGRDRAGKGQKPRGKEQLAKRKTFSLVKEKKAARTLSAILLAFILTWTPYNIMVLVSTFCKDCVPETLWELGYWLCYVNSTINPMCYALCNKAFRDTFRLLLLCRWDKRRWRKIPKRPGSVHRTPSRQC
# Where “and” joins values, the source holds several entries; their conditions need not be identical. Equal values may be shown once. Inconclusive means that the source gave no clear call. Such entries were picked first, then a sample of the others. Potencies of inconclusive entries are doubtful fits and often do not repeat. Calls of active or inactive are those of the source. Unless noted, calls come from the whole dose curve.
# Key:
# [1] = p53 small molecule agonists, cell-based qHTS assay with human liver microsomes (AID 1963577); details: HCT-116 p53RE-bla with human liver microsomes, ratio, 16 h; activation: at 66 µM (top of the series) unless noted;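 for activation: p53 response element beta-lactamase reporter cells with liver microsomes plus NADPH; % is set by controls: 0 for no effect and ±100 for the full control effect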
# Procedure, shortened: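 With metabolic activation: human liver microsomes (0.5 mg/mL final) plus NADPH (0.5 mg/mL final) added alongside compounds to p53RE-bla cells; 16 h 37 C exposure; beta-lactamase read by LiveBLAzer fluorescence.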
# [2] = biological target: Beta-2 adrenergic receptor (Homo sapiens) (UniProt P07550); test: Adrenergic beta2 receptor (ADRB2) small molecule agonists, cell-based qHTS assay (AID 1963593); details: CHO-ADRB2 cells, cAMP HTRF, 30 min;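 for activation: CHO cells stably overexpressing human ADRB2; % is set by controls: 0 for no effect and ±100 for the full control effect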
# Procedure, shortened: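 CHO cells stably over-expressing ADRB2 were plated overnight at 37C, then dosed with compounds plus a stimulation mix containing 100uM IBMX and 25uM Ro-20-1724 for 0.5hr at room temperature. cAMP was measured by HTRF competition, 1hr.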
# [3] = biological target: D(2) dopamine receptor (Homo sapiens) (UniProt P14416); test: Dopamine D2 receptor (DRD2) small molecule agonists, cell-based qHTS assay (AID 1963594); details: HEK293-DRD2 cAMP HTRF, agonist mode, 30 min; activation: at 92.4 µM (top of the series) unless noted; note: nearly all actives have a fitted effect of over 35% in size; for activation: % is set by controls: 0 for no effect and ±100 for the full control effect
# Procedure, shortened: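 cAMP accumulation in DRD2-HEK293 cells measured by HTRF after 1 h detection; compounds added 10 min before NKH477 (200nM […]) forskolin-analogue stimulation, 30 min at room temperature, with Ro20-1724 present at 0.1 mM final.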
# [4] = p53 small molecule agonists, cell-based qHTS assay with rat liver microsomes (AID 1963578); details: HCT-116 p53RE-bla, beta-lactamase ratio, 16 h; activation: at 66 µM (top of the series) unless noted
# Procedure, shortened: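 Metabolic activation by rat liver microsomes and NADPH, each 0.5 mg/mL final, added right after compounds to p53RE-bla reporter cells (4,000/well, plated 5 h earlier). 16 h at 37 C, then LiveBLAzer substrate for 2 h at room temperature in the dark; fluorescence read-out.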
# [5] = p53 small molecule agonists, cell-based qHTS assay with rat liver microsomes: qHTS cell viability counter screen (AID 1963580); details: p53RE-bla HCT-116 + rat microsomes, ATP viability, 16 h; series mostly up to 66 µM; note: nearly all actives have a fitted effect of over 45% in size
# Procedure, shortened: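 Cytotoxicity counter screen: intracellular ATP read by CellTiter-Glo luminescence in the p53 reporter wells. HCT-116 p53RE-bla cells were treated for 16 h at 37 C alongside rat liver microsomes and NADPH, each 0.5 mg/mL final.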
# [6] = p53 small molecule agonists, cell-based qHTS assay: qHTS cell viability counter screen (AID 1963581); details: p53RE-bla HCT-116 viability, ATP luminescence, 16 h; series mostly up to 66 µM; note: nearly all actives have a fitted effect of over 45% in size
# Procedure, shortened: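 Luminescence from CellTiter-Glo, reflecting ATP content, serves as the cytotoxicity measure; it is taken after the 2 h reporter substrate step in HCT-116 p53RE-bla cells dosed for 16 h at 37 C.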
# [7] = p53 small molecule agonists, cell-based qHTS assay (AID 1963582; active = well fitted activation curve with a large enough effect in the signal ratio in the repeat runs, not every such curve was filed as active; inconclusive = weak or mixed curves; the % refers to the signal ratio; for activation: % is set by controls: 0 for no effect and ±100 for the full control effect); details: HCT-116 p53RE-bla reporter, beta-lactamase FRET ratio, 16 h; activation: at 66 µM (top of the series) unless noted
# Procedure, shortened: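 After plating, p53RE-bla cells sat 5 h in the incubator; compounds or DMSO vehicle were pinned in; a 16 h incubation at 37 C followed; FRET substrate was added and, 2 h later at RT, fluorescence was measured.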
# [8] = p53 small molecule agonists, cell-based qHTS assay with human liver microsomes: qHTS cell viability counter screen (AID 1963579); details: p53RE-bla HCT-116 viability, ATP luminescence, 16 h, HLM; series mostly up to 66 µM; note: nearly all actives have a fitted effect of over 45% in size
# Procedure, shortened: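 Metabolic activation used human liver microsomes and NADPH, both 0.5 mg/mL final, over 16 hours at 37 C on p53RE-bla cells (4,000/well). Cytotoxicity measured by CellTiter-Glo luminescence, 30 min at room temperature.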
# [9] = cAMP Responsive Elements (CRE) small molecule antagonists, cell-based qHTS assay (AID 1963591; active = well fitted inhibition curve with a large enough effect in the signal ratio in the repeat runs, not every such curve was filed as active; inconclusive = weak or mixed curves, or effect the other way; the % refers to the signal ratio); details: CRE-bla HEK293T, beta-lactamase FRET ratio; activity change, negative = inhibition: at 92.4 µM (top of the series) unless noted
# Procedure, shortened: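 Stimulation used NKH477 at a final 0.25 uM for 3 h in compound-treated CRE-bla HEK293T cells, seeded 18 h beforehand. Reporter activity was measured with LiveBLAzer B/G FRET substrate after 2 h at room temperature.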
# [10] = cAMP Responsive Elements (CRE) small molecule agonists, cell-based qHTS assay (AID 1963590); details: CRE-bla HEK293T, beta-lactamase FRET ratio, 3 h; activation: at 92.4 µM (top of the series) unless noted
# Procedure, shortened: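 Compound exposure lasted 3 h at 37 C/5% CO2 in CRE-bla HEK 293T cells grown in assay medium with 10% dialyzed FBS and 25 mM HEPES. Reporter signal came from LiveBLAzer B/G FRET substrate, 2 h, room temperature.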
# [11] = biological target: 5-hydroxytryptamine receptor 2A (Homo sapiens) (UniProt P28223); test: 5-hydroxytryptamine receptor 2A (HTR2A) small molecule antagonists, cell-based qHTS assay (AID 1963586); details: HTR2A-CHO cells, DOI-induced calcium flux, fluorescence; series mostly up to 61.5 µM; note: nearly all actives have a fitted effect of over 45% in size
# Procedure, shortened: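 CHO cells stably expressing human HTR2A were plated for 18 h at 37 C, then loaded with calcium dye for 1 h. Compounds were preincubated 5 min at room temperature before DOI (4 nM solution) was added. Kinetic fluorescence was read for 3 min.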
# [12] = biological target: D(2) dopamine receptor (Homo sapiens) (UniProt P14416); test: Dopamine D2 receptor (DRD2) small molecule antagonists, cell-based qHTS assay (AID 1963595; active = well fitted inhibition curve with a large enough effect in the signal ratio in the repeat runs, with a control signal flat; inconclusive = weak or mixed curves, or effect the other way; the % refers to the signal ratio); details: HEK293-DRD2 cAMP HTRF antagonist mode; activity change, negative = inhibition: at 92.4 µM (top of the series) unless noted
# Procedure, shortened: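 Antagonist mode in DRD2-HEK293 cells: after compound addition with 0.1 mM Ro20-1724, cells received quinpirole (12 nM) and NKH477 (200 nM) for 30 min at room temperature; HTRF cAMP read after 1 h detection.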
# [13] = biological target: Beta-2 adrenergic receptor (Homo sapiens) (UniProt P07550); test: Adrenergic beta2 receptor (ADRB2) small molecule antagonists, cell-based qHTS assay (AID 1963592); details: CHO-ADRB2 cells, isoproterenol-stimulated cAMP HTRF ratio, 0.5 h; activity change, negative = inhibition: at 92.4 µM (top of the series) unless noted; note: nearly all actives have a fitted effect of over 50% in size
# Procedure, shortened: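 Assay format: CHO-ADRB2 cells, 18-20hr seeding at 37C/5% CO2, then compound plus 1nM isoproterenol agonist mix for 0.5hr RT. Homogeneous time-resolved fluorescence cAMP detection after 1hr, expressed as 665/615 nm ratio.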
# [14] = biological target: Muscarinic acetylcholine receptor M1 (Homo sapiens) (UniProt P11229); test: Cholinergic receptor muscarinic 1 (CHRM1) small molecule antagonists, cell-based qHTS assay (AID 1963588); details: CHRM1-CHO antagonist mode, calcium flux fluorescence; series mostly up to 61.5 µM; note: nearly all actives have a fitted effect of over 40% in size
# Procedure, shortened: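 Compounds were tested at 15 concentrations in three independent runs. Dye-loaded CHRM1-CHO cells were exposed 5 min at room temperature before stimulation by acetylcholine added at 50nM. Intracellular calcium was read kinetically on FDSS for 3 min.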
# [15] = activation: at 92.4 µM (top of the series) unless noted
# Potency is the fitted concentration of half-maximal effect.
compound,measurement,setting,value
O=C(CC(C(=O)OC1CCCCC1)S(=O)(=O)O)OC1CCCCC1 (stereo unspecified),activation,[1],inconclusive: 24.4%
same,activation,[2]; [15],inconclusive: -32%
same,activation,[2]; at 92.4 µM (top of the series),inactive: -8.33%
Cc1cccc([N+](=O)[O-])c1C,Potency,[1],inconclusive: 47.3 µM [fluorescent]
same,Potency,[2]; [15],"inconclusive: 6.31 µM [inhibitor, single point]"
same,activation,[2]; [15],inconclusive: 11.3%
C/C(Cl)=C/CCl,Potency,[1],inactive
same,activation,[2]; [15],inconclusive: 1.46%
O=C(O)CCNC(=O)c1ccc(N=Nc2ccc(O)c(C(=O)O)c2)cc1,Potency,[1],inactive
same,activation,[2]; [15],inconclusive: 0.656% [at 42.5 µM]
CC(C)c1ccccc1N,Potency,[1],"inconclusive: 40.8 µM [fluorescent, partial curve]"
same,Potency,[2]; [15],inactive
C=COCCOCCOCCOC=C,Potency,[1],inactive
same,Potency,[2]; [15],inactive
CN(C)C(=O)Oc1cccc([N+](C)(C)C)c1,Potency,[1],"inconclusive: 3.16 µM [rising, full curve]"
same,activation,[2]; [15],inconclusive: 6.98% [at 42.5 µM]
same,Potency,[3],inactive
CCC[C@@H]1C[C@@H](C(=O)N[C@@H]([C@H]2O[C@H](SC)[C@H](O)[C@@H](O)[C@H]2O)[C@@H](C)O)N(C)C1,activation,[1],inconclusive: 11.9% [at 30.3 µM]
same,Potency,[2]; [15],inactive
COc1ccc(NC(=O)CC(C)=O)cc1,Potency,[4],"inconclusive: 18.2 µM [fluorescent, single point]"
same,Potency,[5],"inconclusive: 20.4 µM [rising, single point]"
same,Potency,[6],"inconclusive: 18.2 µM [rising, single point]"
same,Potency,[7],inactive
Cc1ccc(O)c(C(=O)c2ccccc2)c1,Potency,[4],"inconclusive: 18.4 µM [activator, single point]"
same,Potency,[8],"inconclusive: 51.9 µM [cytotoxic, single point]"
same,Potency,[9],inconclusive: 69.3 µM
c1csc(SSc2cccs2)c1,Potency,[4],"inconclusive: 18.2 µM [rising, partial curve]"
same,Potency,[5],inconclusive: 45.8 µM [cytotoxic]
same,Potency,[9],inactive
same,Potency,[2]; [15],inactive
COc1ccc2[nH]cc(CCNC(C)=O)c2c1,Potency,[4],inactive
same,Potency,[8],"inconclusive: 0.707 µM [rising, partial curve, poor fit]"
same,Potency,[5],"inconclusive: 4.65 µM [cytotoxic, single point]"
Nc1ccc(F)cc1F,activation,[4],inconclusive: 28.2%
same,Potency,[5],"inconclusive: 51.9 µM [cytotoxic, single point]"
same,Potency,[10],inactive
O=C(c1ccc(O)cc1)c1ccc(O)cc1O,Potency,[4],"inconclusive: 51.3 µM [fluorescent, single point]"
same,Potency,[6],"inconclusive: 51.9 µM [rising, single point]"
same,Potency,[7],"inconclusive: 5.82 µM [fluorescent, partial curve] and inconclusive: 8.14 µM [fluorescent, full curve, poor fit]"
same,Potency,[11],"inconclusive: 26.8 µM [inhibitor, partial curve, poor fit] and inconclusive: 18.8 µM [inhibitor, partial curve]"
same,Potency,[2]; [15],"inconclusive: 6.18 µM [inhibitor, partial curve, poor fit]"
same,activation,[2]; [15],inconclusive: -4.81%
same,Potency,[3],"inconclusive: 69.3 µM [falling, partial curve, poor fit]"
same,Potency,[12],"inconclusive: 39 µM [cytotoxic, partial curve, poor fit]"
CC[N+](C)(CC)CC,Potency,[4],"inconclusive: 51.3 µM [activator, single point]"
CC(=O)c1ccc[nH]1,Potency,[1],"inconclusive: 51.3 µM [fluorescent, single point]"
same,activation,[3],inconclusive: 19.6%
Cc1nc(-c2ccc(OCC(C)C)c(C#N)c2)sc1C(=O)O,Potency,[4],inactive
same,Potency,[5],inactive
same,Potency,[7],"inconclusive: 14.1 µM [rising, partial curve]"
same,Potency,[10],"inconclusive: 7.5 µM [fluorescent, full curve]"
same,Potency,[9],"inconclusive: 15 µM [fluorescent, partial curve]"
same,Potency,[13],inconclusive: 29.8 µM
same,activation,[2]; [15],inconclusive: -36.3% [at 42.5 µM]
N=C1N=C(N)c2cc3ccccc3cc21,Potency,[4],inconclusive: 42 µM [fluorescent]
same,Potency,[8],active: 45.8 µM
same,Potency,[5],active: 45.8 µM
same,Potency,[6],active: 23.6 µM
same,Potency,[7],inconclusive: 43.2 µM
same,Potency,[11],"inconclusive: 37.5 µM [inhibitor, partial curve, poor fit]"
same,Potency,[14],inconclusive: 29.8 µM [inhibitor]
same,Potency,[10],inconclusive: 34.4 µM [fluorescent]
same,Potency,[9],inconclusive: 54.5 µM [fluorescent]
same,Potency,[13],"inconclusive: 43.3 µM [inhibitor, partial curve, poor fit]"
same,activation,[2]; [15],inconclusive: -63.3%
same,"activity change, negative = inhibition",[12],inconclusive: 5.78%

# In a second layout: entries from further up
compound | measurement | setting | value
c1csc(SSc2cccs2)c1 | Potency | [9] | inactive
same | Potency | [2]; [15] | inactive
COc1ccc2[nH]cc(CCNC(C)=O)c2c1 | Potency | [4] | inactive
same | Potency | [8] | inconclusive: 0.707 µM [rising, partial curve, poor fit]
same | Potency | [5] | inconclusive: 4.65 µM [cytotoxic, single point]
Nc1ccc(F)cc1F | activation | [4] | inconclusive: 28.2%
same | Potency | [5] | inconclusive: 51.9 µM [cytotoxic, single point]
same | Potency | [10] | inactive
O=C(c1ccc(O)cc1)c1ccc(O)cc1O | Potency | [4] | inconclusive: 51.3 µM [fluorescent, single point]
same | Potency | [6] | inconclusive: 51.9 µM [rising, single point]
same | Potency | [7] | inconclusive: 5.82 µM [fluorescent, partial curve] and inconclusive: 8.14 µM [fluorescent, full curve, poor fit]
same | Potency | [11] | inconclusive: 26.8 µM [inhibitor, partial curve, poor fit] and inconclusive: 18.8 µM [inhibitor, partial curve]
same | Potency | [2]; [15] | inconclusive: 6.18 µM [inhibitor, partial curve, poor fit]
same | activation | [2]; [15] | inconclusive: -4.81%
same | Potency | [3] | inconclusive: 69.3 µM [falling, partial curve, poor fit]
